Results are given in words; binding and its absence hold for the method and conditions named. Some entries that bind do so weakly or less than the wild type.
Target: PflB (proximal disk rim, C. jejuni 81-176, in the motor in situ) (C. jejuni 81-176 (endogenous in minicells))
Test: cryo-EM structure; in situ single-particle analysis of motors in C. jejuni ΔflhG ΔflaAB minicells; C17 focused refinement of the periplasmic scaffold and first basal disk ring (7.9 Å); AlphaFold2 models docked or flexibly fitted into the map

Chains of the proteins cited; added tags and fusions are not shown.
UniProt A0A6F9L7Y3: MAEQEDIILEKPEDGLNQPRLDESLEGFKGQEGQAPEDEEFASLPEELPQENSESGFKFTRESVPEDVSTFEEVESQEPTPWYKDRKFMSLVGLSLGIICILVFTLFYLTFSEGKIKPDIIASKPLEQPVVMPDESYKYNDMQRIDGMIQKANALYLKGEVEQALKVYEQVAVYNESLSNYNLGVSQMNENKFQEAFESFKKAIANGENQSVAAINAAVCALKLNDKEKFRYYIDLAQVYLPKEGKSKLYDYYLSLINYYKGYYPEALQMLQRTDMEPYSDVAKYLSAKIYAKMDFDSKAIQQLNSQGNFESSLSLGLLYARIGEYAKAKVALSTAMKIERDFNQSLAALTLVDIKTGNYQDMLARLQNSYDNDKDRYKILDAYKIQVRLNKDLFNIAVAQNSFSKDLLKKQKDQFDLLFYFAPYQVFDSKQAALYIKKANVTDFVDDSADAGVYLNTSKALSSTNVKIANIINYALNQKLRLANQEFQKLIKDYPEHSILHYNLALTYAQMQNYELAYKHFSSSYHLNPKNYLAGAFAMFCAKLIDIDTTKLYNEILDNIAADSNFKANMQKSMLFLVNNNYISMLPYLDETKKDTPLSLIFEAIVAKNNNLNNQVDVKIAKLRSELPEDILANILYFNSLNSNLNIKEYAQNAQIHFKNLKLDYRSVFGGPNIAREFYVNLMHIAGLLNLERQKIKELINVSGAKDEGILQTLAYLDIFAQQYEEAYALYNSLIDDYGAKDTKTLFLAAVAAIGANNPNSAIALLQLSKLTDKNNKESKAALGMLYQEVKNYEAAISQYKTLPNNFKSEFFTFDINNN

Q: With “PflB (proximal disk rim, C. jejuni 81-176, in the motor in situ) (from UniProt A0A6F9L7Y3 1-820)” as the substance, how does the binding read?
A: binds

Source: article PMC12222027, “In situ structure of a bacterial flagellar motor at subnanometre resolution reveals adaptations for increased torque” (Nature Microbiology, 2025)
